PubChem BioAssay AID504808 – Drosophila RNAi Screening Center | 2011
Aim: 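Fly genes required to hold E2F transcription in check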 (primary screen). Cells: Drosophila S2 cells. Reagents: long dsRNA against Drosophila genes. Measured: 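Dual luciferase plate measurements; E2F-specific signal taken as firefly over Renilla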. Scale: E2F firefly: higher = more E2F reporter activity; Renilla normaliser: higher = more normaliser reporter signal. Call rule: 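Called active if the normalised E2F reporter went up by over 50%; the cutoff is arbitrary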.
The screen tested about 21,000 reagents; below is a random part of those with a known target gene and a result. Of all reagents, 18 (0.084%) are marked active. 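Raw counts without plate normalisation, one of two replicates; the ratio scores behind the calls were not deposited.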 Entries without a mark were called inactive. The record does not give: the amount of reagent, the time to read-out.

Depletion of CG12769 [DRSC06167] resulted in: E2F firefly, rep 1 = 3426; Renilla normaliser, rep 1 = 223.
For CtIP (CTBP-interacting protein) [DRSC11785], the values are E2F firefly, rep 1 = 1.40e5; Renilla normaliser, rep 1 = 7201.
CG7857 [DRSC10925] gave E2F firefly, rep 1 = 1.56e5; Renilla normaliser, rep 1 = 7962.
With knock-down of wkd (whacked) [DRSC15777], the screen gave E2F firefly, rep 1 = 1.39e5; Renilla normaliser, rep 1 = 7165.
Against pck (pickel) [DRSC18565], the values are E2F firefly, rep 1 = 1720; Renilla normaliser, rep 1 = 976.
With knock-down of Pep (Protein on ecdysone puffs) [DRSC11252] the results were E2F firefly, rep 1 = 59059; Renilla normaliser, rep 1 = 2957.
After knock-down of CG2698 [DRSC15447], the screen gave E2F firefly, rep 1 = 1.16e5; Renilla normaliser, rep 1 = 5470.
After knock-down of Sec23 (Secretory 23) [DRSC12387], the record shows E2F firefly, rep 1 = 64679; Renilla normaliser, rep 1 = 3655.
Against Rab6 [DRSC03404] the deposit lists E2F firefly, rep 1 = 73785; Renilla normaliser, rep 1 = 3495.
With knock-down of CG32053 [DRSC10683], the screen gave E2F firefly, rep 1 = 77991; Renilla normaliser, rep 1 = 3426.
Knock-down of Sec22 (Secretory 22) [DRSC18538] came out at: E2F firefly, rep 1 = 2263; Renilla normaliser, rep 1 = 680.
Against Ogdh (Oxoglutarate dehydrogenase) [DRSC09854] the deposit lists E2F firefly, rep 1 = 84054; Renilla normaliser, rep 1 = 3461.
For Ogdh (Oxoglutarate dehydrogenase) [DRSC09855], the entry reads E2F firefly, rep 1 = 1.51e5; Renilla normaliser, rep 1 = 9217.
Depletion of Cyp308a1 (Cytochrome P450 308a1) [DRSC20238] came out at: E2F firefly, rep 1 = 1.36e5; Renilla normaliser, rep 1 = 6686.
Against Sf3b5 (Splicing factor 3b subunit 5) [DRSC14460], the values are E2F firefly, rep 1 = 96934; Renilla normaliser, rep 1 = 6510.
CG33235 [DRSC19641] gave E2F firefly, rep 1 = 1.39e5; Renilla normaliser, rep 1 = 5911.
Silencing of Ide (Insulin degrading metalloproteinase) [DRSC11867] came out at: E2F firefly, rep 1 = 70633; Renilla normaliser, rep 1 = 3386.
Against CG30457 [DRSC06661], the values are E2F firefly, rep 1 = 1.46e5; Renilla normaliser, rep 1 = 5058.
Against CG31688 [DRSC02682], the entry reads E2F firefly, rep 1 = 86625; Renilla normaliser, rep 1 = 3534.

2 consecutive records from above:
CG12769 [DRSC06167] — E2F firefly, rep 1: 3426; Renilla normaliser, rep 1: 223
CtIP (CTBP-interacting protein) [DRSC11785] — E2F firefly, rep 1: 1.40e5; Renilla normaliser, rep 1: 7201
